Assay results taken from PubChem BioAssay AID624291 (National Center for Advancing Translational Sciences (NCATS), 2012).
The campaign covered roughly 350,000 compounds. About 220 (0.063%) were called active. Inconclusive results, whose numbers are uncertain, are shown with a selection of clear calls. Calls come from the whole dose curve; as a rule, active = well fitted activation curve with a large enough effect; inconclusive = small, poorly fitted or top-dose-only effect; inactive = no such curve, though single readings can be large or run the other way. Where the call is inconclusive, the potency comes from a doubtful curve fit.

Test: qHTS for Activators of Integrin-Mediated Alleviation for Muscular Dystrophy; note: nearly all actives have a fitted effect of over 60% in size;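 for activation: 100% = response of the positive control SU9516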
Conditions: alpha7betagal myoblasts, beta-gal FDG fluorescence, 48 h; activation: at 38.3 µM (top of the series)
Summary of the method: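 Alpha7betagal+/- myoblasts (passage 13) were plated 16-24 hr, then exposed to compounds (1:260 dilution of DMSO stock) for 48 hours at 37C. After MPER lysis, β-galactosidase reporter activity was read as FDG fluorescence (ex 480/em 540) after 30 minutes.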
Potency is the fitted concentration of half-maximal effect.

activation, inconclusive:
CC1(c2ccccc2)NC(=O)N(NC(=O)CSc2n[nH]c(N)n2)C1=O (stereo not drawn) 2.28% [activator]

activation, inactive:
CC(=O)N1CCc2cc(S(=O)(=O)CCC(=O)N3CCN(c4ccccn4)CC3)ccc21 0.195%
CCOC(=O)N1CCN(S(=O)(=O)c2ccc(C(=O)Nc3nnc(C4CC4)o3)cc2)CC1 -19.8%
N#C/C(=C\c1cccc(NC(=O)c2ccccc2Cl)c1)C(=O)NCCc1ccccc1 26.3%
NC(=S)N=Nc1c(O)n(CCCl)c2ccc(Cl)cc12 -41.5%
Fc1ccc2nc(N3CCOCC3)sc2c1 0.582%
COc1ccc(N2CCN(C(=O)Cc3ncc(C(F)(F)F)cc3Cl)CC2)cc1 2.48%
COc1ccccc1NS(=O)(=O)c1cccc(C(=O)N/N=C/c2ccc3c(c2)OCCO3)c1 17.6%
CSCC[C@H](NC(=O)[C@@H]1Cc2ccccc2CN1)C(=O)Nc1ccc2c(c1)OCCO2 4.5%
Cc1cc(C(=O)N/N=C/c2cc(Cl)cc([N+](=O)[O-])c2O)n[nH]1 7.11%
Cc1ccc(S(=O)(=O)N2CCC(=O)N(C(COCc3ccc(Cl)c(Cl)c3)Cc3ccccc3)CC2)cc1 (stereo not drawn) 18.8%
Cc1c(OCC(=O)NC(Cc2ccc(Cl)cc2)C(=O)O)ccc2c3c(c(=O)oc12)CCC3 (stereo not drawn) 8.87%
O=C(CCCC(=O)N(c1ccc2c(c1)OCCO2)C(C(=O)NC1CCCCC1)c1ccc(Cl)cc1)Nc1ccccn1 (stereo not drawn) 0%
O=C(/C=C/c1ccc(S(=O)(=O)N2CCOCC2)cc1)NC(=S)Nc1ccc(N2CCOCC2)cc1 2.47%
FC(F)(F)c1ccccc1-n1c(-c2ccco2)n[nH]c1=S -3.43%

Potency, inconclusive:
COc1ccc(CNC(=O)C2CCN(c3nn4c(=O)cc(C)nc4s3)CC2)cc1 1 µM [activator, full curve, poor fit]
COc1ccc(C(=O)NCC(=O)N/N=C/C(C)=C/c2ccco2)cc1OC 5.62 µM [activator, partial curve, poor fit]
O=C(NCc1ccccc1)c1ccc[n+]([O-])c1 3.55 µM [activator, single point]
Cc1cccc(OCC(=O)NCc2ccc(F)cc2)c1 4.47 µM [activator, single point]
Cc1c(CN2CCC(n3nccc3NC(=O)CCc3ccccc3)CC2)cnn1C 5.01 µM [activator, single point]
Cc1cc(=O)oc2cc(OC(C(=O)O)c3ccccc3)ccc12 (stereo not drawn) 5.62 µM [activator, partial curve, poor fit]
Cc1ccc(CNC(=O)Cn2nnc(C(=O)Nc3cc(C)ccc3C)c2N)cc1 10 µM [activator, partial curve, poor fit]
CC(NC(=O)c1ccccc1NS(=O)(=O)c1ccc(CCC(=O)O)cc1)c1ccccc1 (stereo not drawn) 28.2 µM [activator, single point]
Cc1cc(S(=O)(=O)n2[nH]c(=O)c(CCO)c2C)c(Cl)cc1Cl 5.01 µM [activator, single point]
COc1ccc(OC)c(/C=C/C(=O)OCC(=O)Nc2nnc(-c3ccccc3)o2)c1 0.501 µM [activator, full curve, poor fit]
O=C(NCCc1ccccc1)Nc1ccc2c(c1)OCO2 1.78 µM [activator, partial curve, poor fit]
Cc1noc(C)c1C(=O)Nc1nc(C23CC4CC(CC(C4)C2)C3)cs1 10 µM [activator, partial curve, poor fit]
COc1ccc(N2CCN(C(=O)COc3ccc(Cl)cc3Cl)CC2)cc1 5.01 µM [activator, single point]
CSc1nc(N(C)C)c2ccccc2n1 2.82 µM [activator, partial curve, poor fit]
CC1CN(C(=O)C2CC(=O)N(c3ccc(Cl)cc3)C2)CC(C)O1 (stereo not drawn) 2.82 µM [activator, partial curve, poor fit]
Cc1occc1C(=O)NNC(=O)c1ccccc1F 2 µM [activator, partial curve, poor fit]
Cc1cccc(C)c1-n1c(C)cc(/C=C2\C(=O)NN(c3ccccc3)C2=O)c1C 8.91 µM [activator, partial curve, poor fit]
COc1ccc(S(=O)(=O)n2cccc2)cc1 3.98 µM [activator, single point]
O=C(Nc1ccccn1)NC1CCS(=O)(=O)C1 (stereo not drawn) 1.26 µM [activator, single point]
CCOC(=O)C1CCN(C(=O)Nc2ccccc2Cl)CC1 7.08 µM [activator, partial curve, poor fit]
S=C(NCc1cccs1)Nc1ccc(Br)cc1Cl 5.01 µM [activator, single point]
O=C(C1CCOCC1)N1CCCC(N2CCN(c3cccc(Cl)c3)CC2)C1 (stereo not drawn) 22.4 µM [activator, partial curve, poor fit]
CC(=O)Nc1ccc(NCc2cccs2)cc1 4.47 µM [activator, partial curve, poor fit]
CCOc1ccc(NC(=O)CN(C)C(=O)CC2CCCC2)cc1OCC 28.2 µM [activator, single point]
O=C(O)CC(C(=O)Nc1cccc(C(F)(F)F)c1)C1CCCO1 (stereo not drawn) 14.1 µM [activator, partial curve, poor fit]
Cc1ccc(S(=O)(=O)NNC(=O)c2cccnc2)cc1 5.01 µM [activator, single point]
O=C(N/C(=C/c1cccs1)C(=O)N1CCCC1)c1ccccc1 2.82 µM [activator, full curve, poor fit]
Cc1cccc(C)c1NC1=NC(=S)N(c2ccccc2)C12CCOC(C)(C)C2 (stereo not drawn) 3.55 µM [activator, partial curve, poor fit]

Quoted at random: two compounds from above, in no set order.
Potency, inconclusive:
COc1ccc(N2CCN(C(=O)COc3ccc(Cl)cc3Cl)CC2)cc1 5.01 µM [activator, single point]
O=C(Nc1ccccn1)NC1CCS(=O)(=O)C1 (stereo not drawn) 1.26 µM [activator, single point]
